One substance from article PMC7491322 can be followed below.

The chains behind the UniProt entries cited, without tags or fusion partners. Residues count along the entry.
UniProt Q9Y7M4: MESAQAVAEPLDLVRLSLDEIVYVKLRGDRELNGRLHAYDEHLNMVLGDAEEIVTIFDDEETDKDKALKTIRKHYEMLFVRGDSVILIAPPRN
UniProt O42978, residues 2-80: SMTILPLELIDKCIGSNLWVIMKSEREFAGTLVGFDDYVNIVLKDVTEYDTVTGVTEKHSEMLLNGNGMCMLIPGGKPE

The test addresses S. pombe Lsm3 (S. pombe) (UniProt Q9Y7M4). The experiment in a line: co-purification (affinity and anion-exchange chromatography, chains confirmed by electrospray mass spectrometry); wild-type Lsm1–7 coexpressed in E. coli; IMAC, glutathione agarose (GST on Lsm3), TEV protease, HiTrapQ.

Results are given in words; binding and its absence hold for the method and conditions named. Binding seen in cells or lysates may run through a third protein. A yes stands for co-enrichment or nearness to the bait. Other partners may have been found.

Turning to “S. pombe Lsm5 (from UniProt O42978 2-80)”, the binding result is given as “binds”.
